Laboratory results: PMC3741160
These are yes or no findings as the source states them, for the method shown. In cells and extracts the contact can be indirect. Some results given as binding are weak or reduced against the parent protein; the word gives no strength.

Molecular target: T1, adipose triglyceride lipase (mouse (endogenous in mouse liver)) (UniProt Q8BJ56)
T1 sequence: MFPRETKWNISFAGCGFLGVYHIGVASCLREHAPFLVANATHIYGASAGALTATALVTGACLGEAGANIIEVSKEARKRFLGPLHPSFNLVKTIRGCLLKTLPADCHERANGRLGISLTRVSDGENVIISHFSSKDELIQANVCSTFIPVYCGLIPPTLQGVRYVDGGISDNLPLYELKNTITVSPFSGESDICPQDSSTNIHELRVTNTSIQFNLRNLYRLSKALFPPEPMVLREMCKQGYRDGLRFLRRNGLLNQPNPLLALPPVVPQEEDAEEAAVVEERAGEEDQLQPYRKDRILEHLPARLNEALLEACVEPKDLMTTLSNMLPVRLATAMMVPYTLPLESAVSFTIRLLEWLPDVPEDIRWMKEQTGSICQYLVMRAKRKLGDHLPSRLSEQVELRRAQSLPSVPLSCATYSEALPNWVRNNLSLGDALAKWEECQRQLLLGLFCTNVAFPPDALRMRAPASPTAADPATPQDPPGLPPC
Assay: co-IP; 300 µg total protein extract from livers of mice injected with Ad-G0S2 (4 days); immunoprecipitated with anti-ATGL antibody or pre-immune IgG on Dynabeads; western blot with anti-G0S2

binding: binds
B1: G0/G1 switch gene 2 (protein, UniProt P27469 1-103)
chain: METVQELIPLAKEMMAQKRKGKMVKLYVLGSVLALFGVVLGLMETVCSPFTAARRLRDQEAAVAELQAALERQALQKQALQEKGKQQDTVLGGRALSNRQHAS
